From PMC8849481

Tests used:
Assay in all cases: co-IP; anti-Flag M2 affinity gel with 1 mg lysate of transfected HEK293T cells in RIPA buffer (0.1% SDS, 1% Triton X-100, 1% sodium deoxycholate, 150 mM NaCl, 10 mM Tris pH 7.5, 1 mM EDTA), overnight at 4°C, three washes, Western blot; one panel (Fig 2G) with or without RNase A
[1] = biological target: T1, myxovirus resistance protein B (MxB), Flag-tagged (human) (UniProt P20592)
T1 sequence: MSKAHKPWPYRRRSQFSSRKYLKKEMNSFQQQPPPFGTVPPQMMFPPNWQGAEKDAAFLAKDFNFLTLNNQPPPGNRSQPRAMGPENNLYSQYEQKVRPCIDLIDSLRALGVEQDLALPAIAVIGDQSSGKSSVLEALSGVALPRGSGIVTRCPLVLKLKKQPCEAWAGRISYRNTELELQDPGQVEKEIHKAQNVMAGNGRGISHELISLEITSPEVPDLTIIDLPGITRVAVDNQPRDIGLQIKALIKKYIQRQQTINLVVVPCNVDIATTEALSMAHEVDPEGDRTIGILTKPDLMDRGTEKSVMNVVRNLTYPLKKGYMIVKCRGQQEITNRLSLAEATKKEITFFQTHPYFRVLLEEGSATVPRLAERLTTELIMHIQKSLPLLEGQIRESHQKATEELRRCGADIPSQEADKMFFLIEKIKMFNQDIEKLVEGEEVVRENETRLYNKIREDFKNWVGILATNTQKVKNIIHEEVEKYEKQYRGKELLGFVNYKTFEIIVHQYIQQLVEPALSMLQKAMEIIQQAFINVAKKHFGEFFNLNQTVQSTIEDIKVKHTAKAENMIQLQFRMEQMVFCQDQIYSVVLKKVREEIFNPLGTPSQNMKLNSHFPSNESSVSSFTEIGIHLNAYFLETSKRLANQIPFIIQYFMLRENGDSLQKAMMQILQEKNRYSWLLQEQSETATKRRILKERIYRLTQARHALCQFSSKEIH

[2] = biological target: T2, MxB K131A, Flag-tagged (human) (UniProt P20592)
T2 sequence: T1 sequence with K131A

[3] = biological target: T3, MxB R449D/F495D, Flag-tagged (human) (UniProt P20592)
T3 sequence: T1 sequence with R449D, F495D

[4] = biological target: T4, MxB M574D/Y651D, Flag-tagged (human) (UniProt P20592)
T4 sequence: T1 sequence with M574D, Y651D

Substance	binding [1]	binding [2]	binding [3]	binding [4]
LINE-1 ORF1p expressed from the CMV-L1-neo^RT reporter DNA (human)	binds	binds	binds	binds
LINE-1 ORF1p, Myc-tagged (human)	binds	–	–	–
endogenous LINE-1 ORF1p (human (endogenous in HEK293T))	binds	–	–	–

Substitutions are numbered along the chain they refer to. These are yes or no findings as the source states them, for the method shown. In cells and extracts the contact can be indirect. Binding calls can cover weak binding; strength is not graded here. Sequences can lack the tags named with a protein.
